The values below come from publication doi:10.1101/2024.10.20.619318.

Chains of the proteins cited; added tags and fusions are not shown.
UniProt O95573: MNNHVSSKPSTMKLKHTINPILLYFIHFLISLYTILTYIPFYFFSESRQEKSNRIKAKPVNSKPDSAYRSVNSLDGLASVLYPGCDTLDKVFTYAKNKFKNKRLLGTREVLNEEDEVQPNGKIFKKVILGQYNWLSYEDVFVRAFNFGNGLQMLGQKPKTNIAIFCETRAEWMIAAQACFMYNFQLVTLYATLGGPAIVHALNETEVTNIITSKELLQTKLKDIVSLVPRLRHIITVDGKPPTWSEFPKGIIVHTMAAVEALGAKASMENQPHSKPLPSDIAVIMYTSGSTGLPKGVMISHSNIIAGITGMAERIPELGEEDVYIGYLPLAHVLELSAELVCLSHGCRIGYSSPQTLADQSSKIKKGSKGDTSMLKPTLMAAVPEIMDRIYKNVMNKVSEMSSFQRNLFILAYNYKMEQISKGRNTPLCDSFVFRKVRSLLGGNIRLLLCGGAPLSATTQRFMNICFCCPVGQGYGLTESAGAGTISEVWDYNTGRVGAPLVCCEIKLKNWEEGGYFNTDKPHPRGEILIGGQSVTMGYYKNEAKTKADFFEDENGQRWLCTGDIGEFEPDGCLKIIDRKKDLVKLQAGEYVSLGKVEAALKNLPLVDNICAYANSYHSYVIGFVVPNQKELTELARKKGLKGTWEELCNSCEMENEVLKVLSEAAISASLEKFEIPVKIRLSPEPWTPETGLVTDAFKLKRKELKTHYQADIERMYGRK

Test [1] addresses T1, GFP-Sec14L6 (human) (UniProt B5MCN3).
T1 sequence: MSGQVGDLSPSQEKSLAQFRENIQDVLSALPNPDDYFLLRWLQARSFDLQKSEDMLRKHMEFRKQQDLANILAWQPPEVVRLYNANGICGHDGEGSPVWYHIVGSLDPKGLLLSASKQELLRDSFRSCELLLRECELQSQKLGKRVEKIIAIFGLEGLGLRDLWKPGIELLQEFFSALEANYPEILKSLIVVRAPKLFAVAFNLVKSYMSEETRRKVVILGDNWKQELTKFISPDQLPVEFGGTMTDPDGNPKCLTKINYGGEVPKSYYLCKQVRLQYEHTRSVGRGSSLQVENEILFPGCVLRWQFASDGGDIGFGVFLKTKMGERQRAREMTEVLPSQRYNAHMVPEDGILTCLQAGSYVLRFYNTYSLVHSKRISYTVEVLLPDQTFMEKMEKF
Nature of the test: co-IP.

Test [2] concerns the target T2, Sec14L6-GFP-KI (human (endogenous in HeLa)) (UniProt B5MCN3).
T2 sequence: T1 sequence
Nature of the test: co-IP.

The target of test [3] is T3, GFP-Sec14L6 lacking a helix (residues 193-249) (human) (UniProt B5MCN3).
T3 sequence: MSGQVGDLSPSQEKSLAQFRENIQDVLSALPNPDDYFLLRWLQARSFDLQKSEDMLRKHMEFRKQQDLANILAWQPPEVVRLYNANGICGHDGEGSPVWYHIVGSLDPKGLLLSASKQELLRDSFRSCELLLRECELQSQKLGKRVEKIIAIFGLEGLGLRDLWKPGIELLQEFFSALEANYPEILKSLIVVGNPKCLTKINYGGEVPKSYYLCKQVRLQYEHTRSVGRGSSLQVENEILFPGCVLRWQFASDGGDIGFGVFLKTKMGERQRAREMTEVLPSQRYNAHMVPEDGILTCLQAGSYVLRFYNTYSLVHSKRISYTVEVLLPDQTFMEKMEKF
Nature of the test: co-IP.

Test [4] concerns the target T4, GFP-Sec14L6 lacking a sheet (residues 186-192) (human) (UniProt B5MCN3).
T4 sequence: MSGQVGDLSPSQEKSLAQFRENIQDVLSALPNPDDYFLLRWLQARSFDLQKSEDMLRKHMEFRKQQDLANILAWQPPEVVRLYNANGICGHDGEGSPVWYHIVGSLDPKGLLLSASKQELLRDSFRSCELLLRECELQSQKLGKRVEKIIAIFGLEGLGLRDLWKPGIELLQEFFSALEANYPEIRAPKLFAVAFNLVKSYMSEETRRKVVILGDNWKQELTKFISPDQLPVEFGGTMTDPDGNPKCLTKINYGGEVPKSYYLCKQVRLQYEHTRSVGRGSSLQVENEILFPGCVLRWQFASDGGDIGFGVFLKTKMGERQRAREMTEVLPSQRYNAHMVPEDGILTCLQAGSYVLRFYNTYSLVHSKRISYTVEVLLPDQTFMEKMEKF
The test is described as follows: co-IP.

In test [5] the target is T5, GFP-Sec14L6 lacking a helix (residues 160-185) (human) (UniProt B5MCN3).
T5 sequence: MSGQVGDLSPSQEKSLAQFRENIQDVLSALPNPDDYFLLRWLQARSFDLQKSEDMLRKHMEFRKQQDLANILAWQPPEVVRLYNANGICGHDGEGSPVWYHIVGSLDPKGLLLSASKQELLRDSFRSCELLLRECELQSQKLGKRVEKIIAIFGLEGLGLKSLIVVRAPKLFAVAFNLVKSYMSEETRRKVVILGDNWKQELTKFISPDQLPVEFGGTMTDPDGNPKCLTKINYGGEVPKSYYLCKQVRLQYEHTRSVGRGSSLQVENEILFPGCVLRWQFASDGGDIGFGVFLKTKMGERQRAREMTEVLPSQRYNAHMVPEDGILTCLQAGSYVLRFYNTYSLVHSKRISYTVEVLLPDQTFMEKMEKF
The test is described as follows: co-IP.

The target in test [6] is T1, GFP-Sec14L6 (human). Nature of the test: co-IP. The source holds these as a separate data set.
Another test has as its target Flag-Sec14L6 (human) (UniProt B5MCN3). The test is described as follows: cross-linking.

Where two headings read alike, the source gives them in different places. These are yes or no findings as the source states them, for the method shown. In cells and extracts the contact can be indirect. Some results given as binding are weak or reduced against the parent protein; the word gives no strength. Tags and fused reporters may be left off the sequences shown.

“PGRMC1-Halo (from UniProt O00264-1 1-195)”: in the test with GFP-Sec14L6 (human) [1], the binding entry is reported as “binds”.
Take “endogenous ACSL3 (from UniProt O95573 1-720)”: the binding result (in test [2]; in test [3]; in test [4]; in test [5]; with GFP-Sec14L6 (human) [1]) was “binds” each time.
“endogenous PGRMC1 (from UniProt O00264-1 1-195)”: the binding result in test [2] was “binds”.

B1: GFP-Sec14L6 (protein, UniProt B5MCN3 1-397)
chain: T1 sequence
For the molecule B1, in the test with GFP-Sec14L6 (human) [6], the binding result is given as “binds”.

B2: Flag-Sec14L6 (protein, UniProt B5MCN3 1-397)
chain: T1 sequence
As to B2, the binding entry with Flag-Sec14L6 (human) was “binds”.
